From PMC13194042, “GABAA receptor agonists modulate intracellular Ca^2+ levels in activated human CD4^+ T cells” (Frontiers in Immunology, 2026)
pEC50: −log10 of the molar value.

Sequences of proteins named here, by UniProt entry; tags and fusion partners are left off. Residues count along the entry.
UniProt P28476, 21-465: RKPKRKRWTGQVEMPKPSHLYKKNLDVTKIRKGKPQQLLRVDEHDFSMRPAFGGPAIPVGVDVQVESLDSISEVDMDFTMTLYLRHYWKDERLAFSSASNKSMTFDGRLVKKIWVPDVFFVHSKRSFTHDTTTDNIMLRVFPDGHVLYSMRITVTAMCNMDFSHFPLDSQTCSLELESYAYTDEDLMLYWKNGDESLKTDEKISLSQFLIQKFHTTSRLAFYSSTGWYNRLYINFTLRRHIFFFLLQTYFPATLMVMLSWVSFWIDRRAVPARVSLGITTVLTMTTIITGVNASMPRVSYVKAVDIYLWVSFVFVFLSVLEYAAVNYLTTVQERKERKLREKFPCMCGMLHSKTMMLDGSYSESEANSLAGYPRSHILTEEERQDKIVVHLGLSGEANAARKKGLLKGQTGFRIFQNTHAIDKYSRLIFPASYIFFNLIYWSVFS

Legend:
[1] = molecular target: GABAA receptors in activated human CD4+ T cells (Homo sapiens, UniProt P28476); test: Calcium imaging: agonist-evoked intracellular Ca2+ response in activated CD4+ T cells; type: cell-based; details: comparison with ref [13]
From the text: Human blood samples and blood buffy coats were obtained from Uppsala University Hospital (Uppsala Akademiska sjukhuset), the protocol of which was approved by the Regional Research Ethics Committee in Uppsala (Dnr 2013/347). All individuals who donated blood were voluntarily recruited. Peripheral blood mononuclear cells (PBMCs) were isolated from blood samples using density-gradient centrifugation with Ficoll-Paque™ PLUS (Sigma Aldrich, Sweden). Subsequently, CD4^+ T lymphocytes were isolated from the PBMCs by negative selection, utilizing a human CD4^+ T lymphocyte isolation kit (Miltenyi Biotec, Germany) as per the manufacturer’s instructions. The freshly isolated CD4^+ T lymphocytes (1 million cells/mL) were suspended in human plasma-like medium (HPLM) (Gibco, Fisher Scientific, Sweden) containing 10% heat-inactivated dialyzed fetal bovine serum (Gibco, Fisher Scientific, Sweden), 100 μg/mL streptomycin, 100 U/mL penicillin (Gibco, Fisher Scientific, Sweden), and 5 μM β-mercaptoethanol (Gibco, Fisher Scientific, Sweden). […]
Calcium imaging was performed as previously described ([12]). […] The area around the individual cells was marked, and absolute fluorescence intensity values (F) were extracted using ZENBlue software. The relative intensity (F/Fmedian) for each cell was calculated for every recorded image and plotted against time. […]

[2] = test system: GABAA receptor Cl- currents in human CD4+ T cells; details: read-out: EC50 for the GABA-activated Cl- current, ref [12]; cited from earlier work

In the case of `NCCCC(=O)O` [GABA, γ-Aminobutyric acid], the “shift of EC50 for GABA-evoked Ca2+ signal toward higher affinity vs Xenopus oocytes' EC50 for GABA-activated Cl- currents” value [1] is given as “approximately 10^6 fold” and the pEC50 [2] is given as 10.40.
